# According to the supplement of paper PMC10689618:
# Counter-ions that a name gives are not always drawn. This is one part of the list. Many values rest on one well or one pass, so single values are uncertain.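 Labelled rat cortical synaptosomes were engulfed by primary human fetal astrocytes. Engulfment equaled a red/green ratio, corrected for calcein live-cell signal and normalized to the plate median. Compounds were toxic when calcein dropped over 30%, and reduced phagocytosis when below 70% of the median above 5 µM.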
# Columns and labels:
# Human fetal astrocytes [1] = assay: loss of total cells relative to no-compound high-control median (toxicity); higher = more toxic (fewer cells); conditions: 24 h
# Human fetal astrocytes [2] = assay: synaptosome phagocytosis (pHrodo/calcein intensity ratio) relative to plate median of data wells; higher = more phagocytosis; conditions: 24 h
Compound,loss of total cells (Human fetal astrocytes [1]; 1.39 µM) [%],loss of total cells (Human fetal astrocytes [1]; 2.78 µM) [%],loss of total cells (Human fetal astrocytes [1]; 5.56 µM) [%],loss of total cells (Human fetal astrocytes [1]; 11.11 µM) [%],loss of total cells (Human fetal astrocytes [1]; 22.22 µM) [%],synaptosome phagocytosis (Human fetal astrocytes [2]; 1.39 µM) [%],synaptosome phagocytosis (Human fetal astrocytes [2]; 2.78 µM) [%],synaptosome phagocytosis (Human fetal astrocytes [2]; 5.56 µM) [%],synaptosome phagocytosis (Human fetal astrocytes [2]; 11.11 µM) [%],synaptosome phagocytosis (Human fetal astrocytes [2]; 22.22 µM) [%]
COC[C@H]1OC(=O)c2coc3c2[C@@]1(C)C1=C(C3=O)[C@@H]2CCC(=O)[C@@]2(C)C[C@H]1OC(C)=O [Wortmannin from Penicillium funiculosum],-4,-24.9,1.1,-5,-19.8,64.8,65.5,88.5,79.7,71.5
Clc1cnc(Oc2ccc(Oc3ncc(Cl)cc3Cl)cc2)c(Cl)c1,-23.9,-26.6,-9.6,-13.4,-20.6,116,118,106,110,116
OCc1cnc[nH]1 [4-Imidazolemethanol hydrochloride],6.3,-11.1,6.6,-7.6,-4,141,127,142,114,108
Fc1ccc(C(OCCN2CCN(CCCc3ccccc3)CC2)c2ccc(F)cc2)cc1,9.6,0,16.5,10.3,36.8,95.1,77.9,92.5,95.5,67.2
N[C@@H](Cn1ccc(=O)[nH]c1=O)C(=O)O [S(-)-Willardiine],-0.9,-14.7,-3.9,1.1,-34.6,90.3,106,94.1,82.3,134
C[N+]1(C)[C@@H]2CC[C@H]1C[C@@H](OC(=O)C(CO)c1ccccc1)C2 (stereo not given in full) [Atropine methyl nitrate],-5.5,-5.1,-2.3,4.9,1.1,104,112,100,95.2,127
CC(N)Cc1c[nH]c2ccc(O)cc12 (stereo not drawn) [alpha-Methyl-5-hydroxytryptamine maleate],-1.4,-17.6,0.5,11.4,8.4,121,126,109,148,148
CCCN1CC[C@@H]2c3cc(O)ccc3CC[C@@H]21 (racemic) [cis(+/-)-8-OH-PBZI hydrobromide],-24.2,-7.7,20.2,19,0,104,78.2,98.6,105,80.8
CCCN(CCC)C1Cc2cc(OC)c(OC)cc2C1,-22,-18.3,-8.4,-15.7,-11.5,104,90.9,97.2,92.1,106
CP(=O)(O)CCCN,-15.8,-6.3,-4.1,-3.1,10.2,93.5,78.8,89.6,91.7,111
COC(=O)c1cc2c(cn1)[nH]c1ccccc12 [Methyl beta-carboline-3-carboxylate],-11.3,-9.4,-12.3,-23.8,-12,106,104,112,108,87.4
N[C@@H](Cn1cc(I)c(=O)[nH]c1=O)C(=O)O [S-5-Iodowillardiine],-22.7,-9.9,-16.9,1.1,-35.4,84.6,110,102,97.7,124
"C[N+]1(C)CCc2cc3c(cc2[C@H]1[C@@H]1OC(=O)c2c1ccc1c2OCO1)OCO3 [(-)-Bicuculline methbromide, 1(S), 9(R)]",-16.9,-6,-32.7,-1.3,-7.1,110,101,108,139,84.2
CCCN1CCC[C@@H](c2cccc(C#N)c2)C1 [S(-)-DS 121 hydrochloride],-0.4,10.3,9.9,-10.3,-0.8,97.4,77.1,86.2,96.8,81.4
"C[C@]12CCC(=O)C=C1CC[C@@H]1[C@@H]2CC[C@]2(C)C(=O)CC[C@@H]12 [4-Androstene-3,17-dione]",-3.3,-2.7,-21.7,-6.7,14.7,105,138,129,87.7,106
COc1ccc2c(c1)/C(=C/c1cnc[nH]1)C(=O)N2,-14.7,-6.8,-3.3,10.5,8.4,92.7,63.3,83.6,79.5,37.5
Cc1ccc(S(=O)(=O)N[C@@H](CCCCN)C(=O)CCl)cc1 [Na-p-Tosyl-L-lysine chloromethyl ketone hydrochloride],-5.3,-6.9,-5.6,-9.6,-12.3,110,92.9,102,83.6,118
C[C@H]1OC[C@@H](C[N+](C)(C)C)O1 [(+)-cis-Dioxolane iodide],18,-1.7,-9.1,-11.2,-4,114,83.1,95.4,108,106
NNC(=O)c1ccc(O)cc1 [4-Hydroxybenzhydrazide],-15.5,-13.7,-20.6,-23.8,-17.6,89.5,112,86.9,107,118
COc1ccc2c(c1)[C@@]13CCCC[C@H]1[C@@H](C2)NCC3 [3-Methoxy-morphanin hydrochloride],-6.2,-2.3,10.8,14.3,-4.7,85.7,96.7,90.4,80.2,81
"CC12CCC3C(CCC4=C(O)C(=O)CCC43C)C1CCC2=O (stereo not given) [4-Androsten-4-ol-3,17-dione]",-30.5,-16.5,-12.4,-6.7,-0.4,93.4,97.7,99.2,76.5,82.1
C[Se]C[C@H](N)C(=O)O [Se-(methyl)selenocysteine hydrochloride],-10,-3.2,6.1,1.9,1.9,122,131,72.5,109,97.7

Compound,loss of total cells (Human fetal astrocytes [1]; 1.39 µM) [%],loss of total cells (Human fetal astrocytes [1]; 2.78 µM) [%],loss of total cells (Human fetal astrocytes [1]; 5.56 µM) [%],loss of total cells (Human fetal astrocytes [1]; 11.11 µM) [%],loss of total cells (Human fetal astrocytes [1]; 22.22 µM) [%],synaptosome phagocytosis (Human fetal astrocytes [2]; 1.39 µM) [%],synaptosome phagocytosis (Human fetal astrocytes [2]; 2.78 µM) [%],synaptosome phagocytosis (Human fetal astrocytes [2]; 5.56 µM) [%],synaptosome phagocytosis (Human fetal astrocytes [2]; 11.11 µM) [%],synaptosome phagocytosis (Human fetal astrocytes [2]; 22.22 µM) [%]
CN1[C@@H]2CC[C@H]1C[C@@H](OC(=O)C(CO)c1ccccc1)C2 (stereo not given in full) [Atropine sulfate],2.6,-4.5,-15.2,-15.7,18.4,137,98.5,103,123,119
CCCN1CCC[C@H](c2cccc(O)c2)C1 [R(+)-3PPP hydrochloride],-15.2,-27.8,-17.4,-18,-9.9,108,116,119,106,116
CCCn1c(=O)c2[nH]c(C3CCCC3)nc2n(CCCOC(=O)c2ccc(S(=O)(=O)F)cc2)c1=O,2.9,-12.8,-13.2,-26.5,12,116,103,121,103,131
NCC(O)c1cc(O)c(O)cc1F (stereo not given) [6-Fluoronorepinephrine hydrochloride],-8.1,-14.1,-37.3,-18.4,12.4,125,103,115,93.7,104
N[C@]1(C(=O)O)CC[C@H](C(=O)O)C1 (racemic) [trans-(±)-ACPD],-26.1,-8.4,-10.6,6.7,-1.9,92.4,115,93.7,108,111
COc1cc(C[C@@H](C)N)c(OC)cc1I [( R)-(-)-DOI hydrochloride],5.4,8.5,-4.1,-11.2,15.2,70.5,82.4,84.6,96.3,107
NC(CCP(=O)(O)O)C(=O)O (racemic) [(±)-2-Amino-4-phosphonobutyric acid],-12.5,0.9,-5.1,-11.2,-1.1,98.6,101,120,132,132
CC(=O)OCC1=C(C(=O)[O-])N2C(=O)[C@@H](NC(=O)CCC[C@@H](N)C(=O)[O-])[C@H]2SC1.[Zn+2] [Cephalosporin C zinc salt],9.9,-15.3,-16.1,-4,16.2,139,124,94.3,102,117
CC(C)C[C@H]1C(=O)N2CCC[C@H]2[C@]2(O)O[C@](NC(=O)[C@@H]3C=C4c5cccc6[nH]c(Br)c(c56)C[C@H]4N(C)C3)(C(C)C)C(=O)N12 [(+)-Bromocriptine methanesulfonate],3.3,-5.4,6,-18.4,-3.4,136,118,131,67.2,58.4
O=c1[nH]c2ccccc2n1CCCN1CCC(n2c(=O)[nH]c3cc(Cl)ccc32)CC1 [Domperidone],5.4,-12,-7.4,-17.5,-18.4,106,93.5,73.3,93.6,91.5
CCCN1CC[C@@H]2c3cc(O)ccc3CC[C@@H]21 (racemic) [cis-(±)-8-OH-PBZI hydrobromide],3.3,2.3,16.4,24.8,15.9,114,79.3,95,89.7,144
CCC1(C2=NCCN2)Cc2ccccc2O1 (stereo not given) [Efaroxan hydrochloride],1.3,-21.4,5.8,-11.2,0.8,103,70.3,68.1,110,135
C=CCN1CC[C@]23c4c5ccc(O)c4O[C@H]2/C(=N/NC(=O)c2ccccc2)CC[C@@]3(O)[C@H]1C5 [Naloxone benzoylhydrazone],-20.4,-4.1,-22.1,0,-5.6,97.3,115,114,111,113
C[C@@H]1O[C@H](C[N+](C)(C)C)CS1 [OXA-22 iodide],-18,-6.8,-9.1,-19.3,-6.4,72.7,75.9,119,97.7,110
"Ic1ccccc1CNC1C2CCN(CC2)C1C(c1ccccc1)c1ccccc1 [L-703,606 oxalate]",16.6,-8.6,-1.4,21.9,54.2,89.7,67.3,85.1,49.2,23.1
Cc1c2ccncc2c(C)c2c1[nH]c1ccccc12 [Ellipticine],-10.5,-16.2,2.5,-0.4,-8,57.7,46.7,45.3,31.7,44.5
C=CCN1C[C@H](C)N([C@H](c2ccc(C(=O)N(CC)CC)cc2)c2cccc(OC)c2)C[C@H]1C,-4,-9.3,11.2,-0.4,-7.4,98.8,89.1,89.1,86.9,79.1
C=CCN1CC[C@]23c4c5ccc(O)c4O[C@H]2C(=O)CC[C@@]3(O)[C@H]1C5 [Naloxone hydrochloride],-5.2,8.6,7,4.8,15,116,85.3,116,82,104
CCS(=O)(=O)Nc1cccc(C(=C2CCCCC2)c2cnc[nH]2)c1,-20.6,-10.2,3.2,4.9,14.7,83.9,104,111,81.2,95.5
C#CCOC(=O)C1=CCCN(C)C1 [Arecaidine propargyl ester hydrobromide],-9.5,-20.8,-13.4,26.5,6.4,122,79.4,99.1,96.9,103
"C=CCN1CCC2(C)c3cc(O)ccc3CC1[C@@H]2C (single isomer, unassigned; (+)) [(+)-N-Allylnormetazocine hydrochloride]",-11.7,-10.5,-18.9,-13.9,-1.9,80,96.1,90.4,89.6,86.3

# A different layout for some results above:
Compound	loss of total cells (Human fetal astrocytes [1]; 1.39 µM) [%]	loss of total cells (Human fetal astrocytes [1]; 2.78 µM) [%]	loss of total cells (Human fetal astrocytes [1]; 5.56 µM) [%]	loss of total cells (Human fetal astrocytes [1]; 11.11 µM) [%]	loss of total cells (Human fetal astrocytes [1]; 22.22 µM) [%]	synaptosome phagocytosis (Human fetal astrocytes [2]; 1.39 µM) [%]	synaptosome phagocytosis (Human fetal astrocytes [2]; 2.78 µM) [%]	synaptosome phagocytosis (Human fetal astrocytes [2]; 5.56 µM) [%]	synaptosome phagocytosis (Human fetal astrocytes [2]; 11.11 µM) [%]	synaptosome phagocytosis (Human fetal astrocytes [2]; 22.22 µM) [%]
C[C@H]1OC[C@@H](C[N+](C)(C)C)O1 [(+)-cis-Dioxolane iodide]	18	-1.7	-9.1	-11.2	-4	114	83.1	95.4	108	106
NNC(=O)c1ccc(O)cc1 [4-Hydroxybenzhydrazide]	-15.5	-13.7	-20.6	-23.8	-17.6	89.5	112	86.9	107	118
